Assay results: PMC7290794
Results are given in words; binding and its absence hold for the method and conditions named. Some results given as binding are weak or reduced against the parent protein; the word gives no strength. One block for each molecule: values may come before it.

The chains behind the UniProt entries cited, without tags or fusion partners.
UniProt O00567: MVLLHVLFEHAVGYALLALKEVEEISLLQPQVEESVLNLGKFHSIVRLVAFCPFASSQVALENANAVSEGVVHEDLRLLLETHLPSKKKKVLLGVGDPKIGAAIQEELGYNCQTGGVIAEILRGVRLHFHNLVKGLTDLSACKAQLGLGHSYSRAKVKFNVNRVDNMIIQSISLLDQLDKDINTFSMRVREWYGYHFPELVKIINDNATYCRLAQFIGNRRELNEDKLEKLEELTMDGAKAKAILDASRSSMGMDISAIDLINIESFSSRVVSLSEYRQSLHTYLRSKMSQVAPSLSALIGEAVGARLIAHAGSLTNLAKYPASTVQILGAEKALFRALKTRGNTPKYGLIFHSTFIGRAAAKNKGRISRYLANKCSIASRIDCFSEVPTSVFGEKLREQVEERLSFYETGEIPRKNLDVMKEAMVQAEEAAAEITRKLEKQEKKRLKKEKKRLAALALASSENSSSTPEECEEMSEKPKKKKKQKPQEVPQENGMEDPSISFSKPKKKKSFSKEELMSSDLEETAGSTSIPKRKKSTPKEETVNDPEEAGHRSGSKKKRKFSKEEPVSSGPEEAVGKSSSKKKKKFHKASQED

Experiments:
[1] = biological target: T1, full-length fibrillarin (in the recombinant RNP complex) (human) (UniProt P22087); experiment: co-purification by IMAC; subunits co-expressed in E. coli BL21 DE3 from one plasmid; IMAC (nickel beads) under native conditions, 4 °C; lysis buffer 50 mM Tris-HCl pH 8, 300 mM NaCl, 20 mM imidazole, 10% glycerol, 0.1% Triton X-100; seen on SDS-PAGE
T1 sequence: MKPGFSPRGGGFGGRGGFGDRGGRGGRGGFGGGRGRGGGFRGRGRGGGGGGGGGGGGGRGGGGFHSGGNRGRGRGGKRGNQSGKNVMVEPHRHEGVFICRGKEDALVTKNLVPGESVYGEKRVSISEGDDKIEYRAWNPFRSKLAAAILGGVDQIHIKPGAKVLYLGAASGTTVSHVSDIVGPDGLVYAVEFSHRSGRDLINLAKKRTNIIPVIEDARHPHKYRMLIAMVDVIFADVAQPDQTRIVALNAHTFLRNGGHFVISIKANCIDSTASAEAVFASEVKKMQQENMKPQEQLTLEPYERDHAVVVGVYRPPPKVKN

[2] = biological target: T2, truncated fibrillarin (from amino acid 82 to 321), GAR domain absent (in the RNP ΔGAR complex) (human) (UniProt P22087); experiment: as above
T2 sequence: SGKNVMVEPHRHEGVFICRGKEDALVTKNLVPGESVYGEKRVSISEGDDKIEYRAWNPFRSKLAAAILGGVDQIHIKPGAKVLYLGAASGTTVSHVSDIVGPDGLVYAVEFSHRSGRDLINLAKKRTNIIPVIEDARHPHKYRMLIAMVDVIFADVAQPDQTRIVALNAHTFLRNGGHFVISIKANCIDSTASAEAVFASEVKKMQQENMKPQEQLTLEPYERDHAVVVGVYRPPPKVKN

- binding [1]: binds
- binding [2]: binds
Molecule: Nop56 (from UniProt O00567 1-594)

- binding [1]: binds
- binding [2]: binds
B1: Nop58 (protein, UniProt Q9Y2X3 1-529)
chain: MLVLFETSVGYAIFKVLNEKKLQEVDSLWKEFETPEKANKIVKLKHFEKFQDTAEALAAFTALMEGKINKQLKKVLKKIVKEAHEPLAVADAKLGGVIKEKLNLSCIHSPVVNELMRGIRSQMDGLIPGVEPREMAAMCLGLAHSLSRYRLKFSADKVDTMIVQAISLLDDLDKELNNYIMRCREWYGWHFPELGKIISDNLTYCKCLQKVGDRKNYASAKLSELLPEEVEAEVKAAAEISMGTEVSEEDICNILHLCTQVIEISEYRTQLYEYLQNRMMAIAPNVTVMVGELVGARLIAHAGSLLNLAKHAASTVQILGAEKALFRALKSRRDTPKYGLIYHASLVGQTSPKHKGKISRMLAAKTVLAIRYDAFGEDSSSAMGVENRAKLEARLRTLEDRGIRKISGTGKALAKTEKYEHKSEVKTYDPSGDSTLPTCSKKRKIEQVDKEDEITEKKAKKAKIKVKVEEEEEEKVAEEEETSVKKKKKRGKKKHIKEEPLSEEEPCTSTAIASPEKKKKKKKKRENED

- binding [1]: binds
- binding [2]: binds
B2: 15.5K (protein, UniProt P55769 1-128)
chain: MTEADVNPKAYPLADAHLTKKLLDLVQQSCNYKQLRKGANEATKTLNRGISEFIVMAADAEPLEIILHLPLLCEDKNVPYVFVRSKQALGRACGVSRPVIACSVTIKEGSQLKQQIQSIQQSIERLLV
